In all, about 390,000 compounds went through this assay and about 910 (0.23%) were called active. The inconclusive results got no clear call from the source; some entries with a clear call stand among them for comparison. The call rests on the fitted dose curve; in most records, active means well fitted inhibition curve with a large enough effect; inconclusive means small, poorly fitted or top-dose-only effect; inactive means no such curve, though single readings can be large or run the other way. Potencies of inconclusive entries are doubtful fits and often do not repeat.
biological target: Ubiquitin carboxyl-terminal hydrolase 1 (Homo sapiens) (UniProt O94782); experiment: Inhibitors of USP1/UAF1: Primary Screen; settings: recombinant USP1/UAF1, Ub-Rhodamine cleavage fluorescence; activity change, negative = inhibition: at 57.1 µM (top of the series); further: nearly all actives have a fitted effect of over 60% in size
In short: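 USP1/UAF1 complex (1 nM) preincubated 15 min at room temperature with compound, then Ub-Rho substrate (150 nM final) added. Kinetic fluorescence at 480/540 nm over 6 reads at 60 s intervals; 50 mM HEPES pH 7.8, 0.5 mM EDTA, 0.1 mg/ml BSA, 1 mM TCEP, 0.01% Tween-20.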
On the % scale 0 is the no-effect control and ±100 the full control effect; potency means the concentration at half of the fitted maximal effect.

By UniProt entry, the sequences of proteins in these tests, tags left out. Where a name states a change or a piece, a line headed by the entry shows the natural chain unless it says otherwise.
UniProt O94782: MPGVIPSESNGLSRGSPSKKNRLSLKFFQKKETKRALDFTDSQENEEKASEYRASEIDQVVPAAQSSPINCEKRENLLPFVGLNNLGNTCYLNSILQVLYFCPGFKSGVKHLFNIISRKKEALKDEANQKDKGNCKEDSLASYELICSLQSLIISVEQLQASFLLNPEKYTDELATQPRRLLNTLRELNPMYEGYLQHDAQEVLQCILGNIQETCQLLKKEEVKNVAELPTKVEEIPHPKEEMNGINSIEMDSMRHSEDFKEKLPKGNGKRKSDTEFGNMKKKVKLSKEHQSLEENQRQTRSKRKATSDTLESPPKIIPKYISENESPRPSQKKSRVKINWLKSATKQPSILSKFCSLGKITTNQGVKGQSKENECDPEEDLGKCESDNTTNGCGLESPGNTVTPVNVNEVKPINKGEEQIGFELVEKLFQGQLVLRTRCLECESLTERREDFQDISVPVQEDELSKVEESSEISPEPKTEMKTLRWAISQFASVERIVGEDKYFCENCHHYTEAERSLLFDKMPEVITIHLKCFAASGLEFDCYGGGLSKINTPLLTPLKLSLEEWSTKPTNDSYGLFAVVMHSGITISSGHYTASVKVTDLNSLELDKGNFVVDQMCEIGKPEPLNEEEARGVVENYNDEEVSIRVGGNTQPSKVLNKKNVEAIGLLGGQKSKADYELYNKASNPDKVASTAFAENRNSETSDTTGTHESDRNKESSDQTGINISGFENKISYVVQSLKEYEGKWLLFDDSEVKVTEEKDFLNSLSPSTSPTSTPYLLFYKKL

Row | Structure (SMILES) | Potency | activity change, negative = inhibition
1 | CN=c1sc2c(n1C)C(=O)c1ccccc1C2=O | active: 15.8 µM | 
2 | COc1cc(O)c(C(CC(=O)N2CCCCC2)c2ccc(N(C)C)cc2)c(OC)c1 (stereo not drawn) | inconclusive: 2.51 µM [inhibitor, full curve] | 
3 | Cc1cccc(OCC(=O)Nc2ccccc2OCc2cc(=O)n3ccccc3n2)c1 |  | inactive: -15.1%
4 | O=C(CCN1C(=O)CSc2ccccc21)Nc1ccc(OC(F)(F)F)cc1 |  | inactive: -23.3%
5 | CN(C(=O)c1sc2nc(N3CCOCC3)c3c(c2c1N)CCCC3)c1ccccc1 |  | inactive: -10.1%
6 | CN(C[C@H](Cc1ccccc1)N(C[C@H](Cc1cccc2ccccc12)N(CCc1ccccc1)N=O)N=O)N=O | inconclusive: 2.82 µM [inhibitor, full curve, poor fit] | 
7 | C[C@@H]1CN([C@@H](C)CO)S(=O)(=O)c2ccc(/C=C/c3ccccc3)cc2O[C@@H]1CN(C)Cc1ccc(C(=O)O)cc1 | inconclusive: 0.282 µM [inhibitor, full curve] | 
8 | Cc1ccc(/C=C2\SC(=S)N(C3CCS(=O)(=O)C3)C2=O)cc1 (stereo not drawn) |  | inactive: 1.26%
9 | COc1ccc(CCN2CC(C(=O)NCC(c3ccccc3)N(C)C)CC2=O)cc1OC (stereo not drawn) | inconclusive: 22.4 µM [inhibitor, partial curve] | 
10 | C[C@H](NC(=O)c1nc[nH]c1C(=O)N[C@@H](C)c1ccccc1)c1ccccc1 | inconclusive: 12.6 µM [inhibitor, partial curve] | 
11 | Cc1nc2c(C(=O)NCCc3ccc(Cl)cc3)c[nH]n2c(=O)c1Cc1ccc(Cl)cc1 | inconclusive: 3.55 µM [inhibitor, partial curve, poor fit] | 
12 | Cc1ccc2c(c1)-c1nc(-c3ccc4c(c3)NC(=O)CO4)cc(-c3ccc(F)cc3)c1CO2 | inconclusive: 5.62 µM [inhibitor, partial curve] | 
13 | O=C(c1ccc2c(c1)OCO2)N1CCN(c2cccc(C(F)(F)F)c2)CC1 |  | inactive: 1.09%
14 | Cc1ccc(NC(=O)CN2C(=O)COc3ccc(S(=O)(=O)N4CCCCC4)cc32)cc1N(C)C |  | inactive: -6.56%
15 | COc1ccc(C=NN=C2c3ccccc3-c3ccccc32)cc1OC | inconclusive: 39.8 µM [inhibitor, partial curve] | 
16 | COc1cc(/C=C/C(=O)O)cc(S(=O)(=O)N(CC(C)C)CC(C)C)c1OC | inconclusive: 7.08 µM [inhibitor, single point] | 
17 | COc1ccc(CN(Cc2ccco2)c2cnc(S(C)(=O)=O)nc2C(=O)Nc2ccc(F)cc2)cc1 | inconclusive: 3.98 µM [inhibitor, partial curve] | 
18 | CCOC(=O)c1cccc(NC(=O)c2ccc3nc(Cc4ccccc4)oc3c2)c1 | inconclusive: 50.1 µM [inhibitor, partial curve, poor fit] | 

Gathered by group, the compounds so far containing a COOH group.
Row | Structure (SMILES) | Potency | activity change, negative = inhibition
7 | C[C@@H]1CN([C@@H](C)CO)S(=O)(=O)c2ccc(/C=C/c3ccccc3)cc2O[C@@H]1CN(C)Cc1ccc(C(=O)O)cc1 | inconclusive: 0.282 µM [inhibitor, full curve] | 
16 | COc1cc(/C=C/C(=O)O)cc(S(=O)(=O)N(CC(C)C)CC(C)C)c1OC | inconclusive: 7.08 µM [inhibitor, single point] | 

Reference: PubChem BioAssay AID743255 (National Center for Advancing Translational Sciences (NCATS), 2014)
